The reference is the same well before dosing, and untreated signal decays as well.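 The tumor cells are basal-like or mesenchymal-like triple-negative breast cancer lines cultured without fibroblasts. Reduced red signal indicates lost mitochondrial integrity, serving as a proxy for apoptotic death.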
Key:
Test in all cases: relative JC-1 red fluorescence (viability) vs pre-drug, monoculture (fraction); higher = more viable cancer cells
Settings in all cases: coculture fibroblast: none (monoculture)
Hs578T = system: Hs578T
Procedure: (§1)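 JC-1 labelled TNBC cells grown in monoculture (density kept equal with unlabelled cancer cells) in 384-well plates in FluoroBrite medium, treated with one of 42 anticancer drugs at 0.1, 1, 10 or 100 uM. JC-1 red fluorescence (mitochondrial integrity, surrogate of apoptotic death) was read by plate reader every 8 h for 72 h. Values are normalised to each well's pre-drug value, with background from alamethicin. The stock of one drug was tenfold lower, so its dose labels may be too high. Monoculture values are repeated alongside each fibroblast plate and are averaged here.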

MDAMB231 = system: MDAMB231
Procedure: as §1

BT20 = system: BT20
Procedure: as §1

MDAMB468 = system: MDAMB468
Procedure: as §1

CCc1c2c(nc3ccc(OC(=O)N4CCC(N5CCCCC5)CC4)cc13)-c1cc3c(c(=O)n1C2)COC(=O)[C@]3(O)CC [Irinotecan]
relative JC-1 red fluorescence
Settings | 8 h | 16 h | 24 h | 32 h | 40 h | 48 h | 56 h | 64 h | 72 h
BT20, 0.1 µM | 0.96 | 0.898 | 0.862 | 0.779 | 0.744 | 0.729 | 0.702 | 0.697 | 0.687
BT20, 1 µM | 0.895 | 0.859 | 0.859 | 0.796 | 0.784 | 0.794 | 0.783 | 0.784 | 0.785
BT20, 10 µM | 0.963 | 0.8831 | 0.885 | 0.816 | 0.79 | 0.792 | 0.774 | 0.784 | 0.788
BT20, 100 µM | 0.929 | 0.9349 | 0.963 | 0.8984 | 0.878 | 0.8908 | 0.877 | 0.8833 | 0.8922
Hs578T, 0.1 µM | 0.825 | 0.698 | 0.662 | 0.6 | 0.566 | 0.55 | 0.528 | 0.525 | 0.525
Hs578T, 1 µM | 0.81 | 0.674 | 0.633 | 0.549 | 0.508 | 0.478 | 0.461 | 0.469 | 0.471
Hs578T, 10 µM | 0.878 | 0.7588 | 0.754 | 0.687 | 0.656 | 0.644 | 0.626 | 0.624 | 0.619
Hs578T, 100 µM | 0.8479 | 0.832 | 0.8 | 0.724 | 0.669 | 0.626 | 0.594 | 0.599 | 0.586
MDAMB231, 0.1 µM | 0.696 | 0.6428 | 0.6109 | 0.5534 | 0.5124 | 0.498 | 0.4844 | 0.5007 | 0.4977
MDAMB231, 1 µM | 0.71 | 0.67 | 0.662 | 0.6 | 0.5641 | 0.56 | 0.535 | 0.559 | 0.549
MDAMB231, 10 µM | 0.7646 | 0.742 | 0.686 | 0.647 | 0.611 | 0.599 | 0.572 | 0.599 | 0.594
MDAMB231, 100 µM | 0.79 | 0.8462 | 0.774 | 0.8443 | 0.814 | 0.8 | 0.768 | 0.77 | 0.762
MDAMB468, 0.1 µM | 0.90536 | 0.834 | 0.74978 | 0.679 | 0.647 | 0.613 | 0.58 | 0.562 | 0.543
MDAMB468, 1 µM | 0.868 | 0.754 | 0.748 | 0.717 | 0.674 | 0.681 | 0.65 | 0.643 | 0.641
MDAMB468, 10 µM | 0.92 | 0.875 | 0.819 | 0.754 | 0.717 | 0.685 | 0.636 | 0.595 | 0.574
MDAMB468, 100 µM | 0.8575 | 0.85 | 0.848 | 0.794 | 0.76 | 0.764 | 0.74 | 0.722 | 0.709

O=C(O)C1(C(=O)O)CCC1.[NH2-].[NH2-].[Pt+2] [Carboplatin]
relative JC-1 red fluorescence
Settings | 8 h | 16 h | 24 h | 32 h | 40 h | 48 h | 56 h | 64 h | 72 h
BT20, 0.1 µM | 0.938 | 0.855 | 0.753 | 0.674 | 0.616 | 0.587 | 0.556 | 0.54 | 0.524
BT20, 1 µM | 0.922 | 0.851 | 0.846 | 0.763 | 0.721 | 0.697 | 0.66803 | 0.662 | 0.653
BT20, 10 µM | 0.956 | 0.842 | 0.806 | 0.729 | 0.687 | 0.673 | 0.64 | 0.623 | 0.607
BT20, 100 µM | 0.881 | 0.833 | 0.825 | 0.759 | 0.706 | 0.692 | 0.676 | 0.672 | 0.68
Hs578T, 0.1 µM | 0.841 | 0.717 | 0.705 | 0.634 | 0.61 | 0.606 | 0.583 | 0.591 | 0.581
Hs578T, 1 µM | 0.7748 | 0.676 | 0.629 | 0.5404 | 0.49262 | 0.465 | 0.44 | 0.438 | 0.432
Hs578T, 10 µM | 0.7981 | 0.6823 | 0.634 | 0.5726 | 0.531 | 0.5137 | 0.488 | 0.483 | 0.469
Hs578T, 100 µM | 0.781 | 0.7 | 0.712 | 0.622 | 0.583 | 0.583 | 0.576 | 0.602 | 0.614
MDAMB231, 0.1 µM | 0.715 | 0.692 | 0.6055 | 0.5892 | 0.547 | 0.529 | 0.492 | 0.51 | 0.501
MDAMB231, 1 µM | 0.666 | 0.626 | 0.626 | 0.558 | 0.531 | 0.517 | 0.501 | 0.516 | 0.5226
MDAMB231, 10 µM | 0.771 | 0.807 | 0.619 | 0.666 | 0.605 | 0.568 | 0.518 | 0.513 | 0.486
MDAMB231, 100 µM | 0.6556 | 0.633 | 0.634 | 0.582 | 0.539 | 0.543 | 0.533 | 0.563 | 0.573
MDAMB468, 0.1 µM | 0.895 | 0.836 | 0.773 | 0.711 | 0.652 | 0.633 | 0.598 | 0.57 | 0.557
MDAMB468, 1 µM | 0.8556 | 0.7409 | 0.7336 | 0.6912 | 0.641 | 0.6427 | 0.625 | 0.6156 | 0.599
MDAMB468, 10 µM | 0.86487 | 0.797 | 0.7578 | 0.6928 | 0.6546 | 0.6315 | 0.595 | 0.567 | 0.554
MDAMB468, 100 µM | 0.827 | 0.778 | 0.739 | 0.619 | 0.549 | 0.533 | 0.496 | 0.482 | 0.465

COc1cc([C@@H]2c3cc4c(cc3[C@@H](O[C@@H]3O[C@@H]5CO[C@@H](c6cccs6)O[C@H]5[C@H](O)[C@H]3O)[C@H]3COC(=O)[C@H]23)OCO4)cc(OC)c1O [Teniposide]
relative JC-1 red fluorescence
Settings | 8 h | 16 h | 24 h | 32 h | 40 h | 48 h | 56 h | 64 h | 72 h
BT20, 0.1 µM | 0.9288 | 0.945 | 0.843 | 0.828 | 0.822 | 0.9174 | 0.842 | 0.908 | 0.86
BT20, 1 µM | 0.918 | 0.8785 | 0.905 | 0.839 | 0.842 | 0.735 | 0.796 | 0.766 | 0.81
BT20, 10 µM | 0.93 | 0.8899 | 0.909 | 0.824 | 0.815 | 0.826 | 0.823 | 0.837 | 0.834
BT20, 100 µM | 0.932 | 0.917 | 0.89 | 0.792 | 0.858 | 0.846 | 0.802 | 0.8929 | 0.8885
Hs578T, 0.1 µM | 0.829 | 0.7194 | 0.715 | 0.62 | 0.584 | 0.564 | 0.538 | 0.545 | 0.533
Hs578T, 1 µM | 0.7932 | 0.687 | 0.6534 | 0.5729 | 0.522 | 0.501 | 0.4739 | 0.481 | 0.476
Hs578T, 10 µM | 0.876 | 0.824 | 0.8227 | 0.764 | 0.725 | 0.707 | 0.679 | 0.672 | 0.663
Hs578T, 100 µM | 0.882 | 0.843 | 0.8966 | 0.8368 | 0.8257 | 0.8207 | 0.809 | 0.816 | 0.826
MDAMB231, 0.1 µM | 0.637 | 0.59 | 0.604 | 0.532 | 0.493 | 0.495 | 0.486 | 0.52309 | 0.5423
MDAMB231, 1 µM | 0.653 | 0.629 | 0.629 | 0.586 | 0.55 | 0.554 | 0.547 | 0.583 | 0.592
MDAMB231, 10 µM | 0.713 | 0.682 | 0.715 | 0.71 | 0.669 | 0.676 | 0.673 | 0.724 | 0.736
MDAMB231, 100 µM | 0.7747 | 0.787 | 0.763 | 0.822 | 0.804 | 0.8103 | 0.83 | 0.868 | 0.877
MDAMB468, 0.1 µM | 0.84 | 0.729 | 0.73 | 0.658 | 0.625 | 0.614 | 0.57 | 0.551 | 0.555
MDAMB468, 1 µM | 0.848 | 0.747 | 0.722 | 0.626 | 0.586 | 0.576 | 0.5479 | 0.529 | 0.5174
MDAMB468, 10 µM | 0.874 | 0.787 | 0.739 | 0.655 | 0.598 | 0.568 | 0.518 | 0.507 | 0.499
MDAMB468, 100 µM | 0.9269 | 0.919 | 0.921 | 0.843 | 0.769 | 0.764 | 0.721 | 0.704 | 0.701

— the supplement of paper PMC6078165
